Reference: paper doi:10.1101/2020.04.13.039982
These are yes or no findings as the source states them, for the method shown. Some entries that bind do so weakly or less than the wild type. Sequences can lack the tags named with a protein. Values belong to the binder of their own block, whether it stands above or below them.

The chains behind the UniProt entries cited, without tags or fusion partners. Where a name states a change or a piece, a line headed by the entry shows the natural chain unless it says otherwise.
UniProt P09733: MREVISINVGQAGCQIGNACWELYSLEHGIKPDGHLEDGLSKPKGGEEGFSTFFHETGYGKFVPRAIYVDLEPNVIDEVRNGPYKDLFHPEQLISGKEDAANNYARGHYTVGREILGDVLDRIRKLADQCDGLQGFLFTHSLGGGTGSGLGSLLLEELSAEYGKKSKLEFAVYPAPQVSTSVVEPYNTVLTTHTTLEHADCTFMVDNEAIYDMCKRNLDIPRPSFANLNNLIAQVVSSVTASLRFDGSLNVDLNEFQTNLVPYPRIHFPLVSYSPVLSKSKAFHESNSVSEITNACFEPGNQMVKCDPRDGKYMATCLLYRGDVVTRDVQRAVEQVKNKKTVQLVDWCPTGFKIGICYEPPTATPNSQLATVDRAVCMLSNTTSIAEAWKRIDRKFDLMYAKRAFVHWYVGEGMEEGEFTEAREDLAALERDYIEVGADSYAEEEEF

Assays:
[1] = molecular target: LexADBD-Tub1^G437R (S. cerevisiae) (UniProt P09733); assay: two-hybrid
[2] = molecular target: LexADBD-Tub1 (S. cerevisiae) (UniProt P09733); assay: two-hybrid

binding [1]: binds
binding [2]: binds
B1: Bim1 fused to the GAL4 activating domain (GAL4AD) (protein, UniProt P40013 1-344)
chain: MSAGIGESRTELLTWLNGLLNLNYKKIEECGTGAAYCQIMDSIYGDLPMNRVKFNATAEYEFQTNYKILQSCFSRHGIEKTVYVDKLIRCKFQDNLEFLQWLKKHWIRHKDESVYDPDARRKYRPIITNNSATKPRTVSNPTTAKRSSSTGTGSAMSGGLATRHSSLGINGSRKTSVTQGQLVAIQAELTKSQETIGSLNEEIEQYKGTVSTLEIEREFYFNKLRDIEILVHTTQDLINEGVYKFNDETITGHGNGNGGALLRFVKKVESILYATAEGFEMNDGEDELNDKNLGEHGTVPNQGGYANSNGEVNGNEGSNHDVIMQNDEGEVGVSNNLIIDEETF

binding [1]: binds
binding [2]: binds
B2: Kip3 fused to the GAL4 activating domain (GAL4AD) (protein, UniProt P53086 1-805)
chain: MNVPETRQSSIVVAIRVRPFTSMEKTRLVNEASGAEANFPGLGDSSLILPMSNNSDSDIDIDAEEGSTRSKRNSLLRRKVIRPEGIRKIVDCVDDRMLIFDPADRNPLNKVSDQVLNSMRARATKATASSINNSNATNKFSSQRRRHGGEIKFVFDKLFDETSSQARVYKETTSPLLDSVLDGFNSTVFAYGATGCGKTYTVSGTPSQPGIIFLAMEELFNKITDLKDEKDFEISLSYLEIYNERIRDLLKPETPSKRLVIREDTQNHIKVANLSYHHPNTVEDVMDLVVQGNINRTTSPTEANEVSSRSHAVLQIHIMQTNKLVDLTSQHTFATLSIIDLAGSERAAATRNRGIRLHEGANINRSLLALGNCINALCLNDGSRSCHIPYRDSKLTRLLKFSLGGNCKTVMIVCISPSSSHYDETLNTLKYANRAKEIKTKIIRNQQSLSRHVGSYLKMITEQKRQIEELREREEKMISLKLTKYKLNKEKIQLAINECVNRVQQTYAGVETYQVAKTLKSLILCKRRFLQMVKLEVDNLILLFEREESTAAEMQPVISNCRMISGQLYNKIHELEMKFDETDTLSSVIHQVHSIDLNKLREMEDWDETYDLVYLESCLNQISELQRNEILVNSSIMTEKLMSDPGLNSRFKFLSKWLMNRTPNIESIIQDLVHIDEEFESFARTFIANPDSNFTNTNINIINTTAADLAVPAETLQRQNFSQKKVKWTSPDLSPSPMIEPQPELEPELHQDQDAIASEVDVSMQDTTFNEQGPSTPSAPTTAVPRRKMRSSLLTHQSLLATARK

binding [1]: no binding
binding [2]: binds
B3: She1-Gal4 activation domain (AD) fusion (protein, UniProt P38200 1-338)
chain: MNDKLQEEHNEKDTTSQINGFTPPHMSIDFHSNNNSNIIETIGVSKRLGNSVLSELDSRASSKFEFLKDQSEQQYNGDKNNEPKSGSYNINEFFQAKHDSQFGQMESLDTHYTLLHTPKRKSQHAIPQDRSDSMKRSRPSRSIPYTTPVVNDITRRIRRLKLRNSLVNGNDIVARARSMQANSNINSIKNTPLSKPKPFMHKPNFLMPTTNSLNKINSAHRNTSSSSTASSIPRSKVHRSISIRDLHAKTKPVERTPVAQGTNSQLKNSVSVFDRLYKQTTFSRSTSMNNLSSGTSAKSKEHTNVKTRLVKSKTSGSLSSNLKQSTATGTKSDRPIWR
